Publication PMC6109925, “Structural and functional analysis of cystatin E reveals enzymologically relevant dimer and amyloid fibril states” (The Journal of Biological Chemistry, 2018)
No constants are given. Whether binding was seen depends on the method and setting. Tags and fused reporters may be left off the sequences shown.

Target: T1, human cystatin E, wild type, with C-terminal His6 tag followed by a Strep-tag (human) (UniProt Q15828)
T1 sequence: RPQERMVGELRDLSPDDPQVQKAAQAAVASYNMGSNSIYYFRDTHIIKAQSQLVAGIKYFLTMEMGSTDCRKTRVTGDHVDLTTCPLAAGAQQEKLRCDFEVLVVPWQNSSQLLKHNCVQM
Assay: pull-down; Strep-tagged cystatin E co-incubated with cystatin C at 70 °C for 10 min, 10 min on ice, loaded on Strep-Tactin Sepharose; 100 mM Tris pH 8.0, 150 mM NaCl; eluted with 2.5 mM desthiobiotin; SDS-PAGE; both purified

binding: no binding
B1: human cystatin C, wild type (natural protein, UniProt P01034 27-146, looked up)
chain: SSPGKPPRLVGGPMDASVEEEGVRRALDFAVGEYNKASNDMYHSRALQVVRARKQIVAGVNYFLDVELGRTTCTKTQPNLDNCPFHDQPHLKRKAFCSFQIYAVPWQGTMTLSKSTCQDA
notes: N terminus Ser1 after removal of the pelB leader. numbers count on: the mature protein; Called 'untagged hCC' in the pull-down (it has no Strep-tag), while the methods give a C-terminal His6 tag for the expression constructs; also called hCC; WT cystatin C; source: E. coli Bl21(DE3), periplasm (pelB leader), purified (nickel-nitrilotriacetic acid resin, SEC)
